# Measured values: paper PMC5326618
# Sequences of proteins named here, by UniProt entry; tags and fusion partners are left off. A change or cut given only in a name is not applied to a line headed by its entry.
# UniProt Q96PU4: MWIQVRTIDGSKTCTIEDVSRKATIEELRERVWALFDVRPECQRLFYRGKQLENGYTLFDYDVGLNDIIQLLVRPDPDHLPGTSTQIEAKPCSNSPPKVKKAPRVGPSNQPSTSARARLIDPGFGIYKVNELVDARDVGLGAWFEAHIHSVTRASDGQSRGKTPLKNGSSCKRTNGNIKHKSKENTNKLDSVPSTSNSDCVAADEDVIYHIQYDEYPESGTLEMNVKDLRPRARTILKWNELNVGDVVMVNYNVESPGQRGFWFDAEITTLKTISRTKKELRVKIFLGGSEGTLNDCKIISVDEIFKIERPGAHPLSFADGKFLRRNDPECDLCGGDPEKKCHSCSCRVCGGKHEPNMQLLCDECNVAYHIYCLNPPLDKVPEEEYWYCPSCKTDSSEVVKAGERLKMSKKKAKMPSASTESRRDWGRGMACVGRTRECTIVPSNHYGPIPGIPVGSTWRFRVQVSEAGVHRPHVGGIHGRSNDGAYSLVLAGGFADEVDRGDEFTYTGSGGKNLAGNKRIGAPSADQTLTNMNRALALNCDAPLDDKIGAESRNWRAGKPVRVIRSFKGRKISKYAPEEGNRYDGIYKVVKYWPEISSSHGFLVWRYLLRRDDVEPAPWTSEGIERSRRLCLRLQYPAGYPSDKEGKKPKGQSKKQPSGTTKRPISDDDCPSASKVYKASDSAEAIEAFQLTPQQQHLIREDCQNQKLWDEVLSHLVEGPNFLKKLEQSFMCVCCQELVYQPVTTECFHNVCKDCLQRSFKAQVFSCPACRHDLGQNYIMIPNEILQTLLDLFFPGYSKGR
# UniProt Q13547: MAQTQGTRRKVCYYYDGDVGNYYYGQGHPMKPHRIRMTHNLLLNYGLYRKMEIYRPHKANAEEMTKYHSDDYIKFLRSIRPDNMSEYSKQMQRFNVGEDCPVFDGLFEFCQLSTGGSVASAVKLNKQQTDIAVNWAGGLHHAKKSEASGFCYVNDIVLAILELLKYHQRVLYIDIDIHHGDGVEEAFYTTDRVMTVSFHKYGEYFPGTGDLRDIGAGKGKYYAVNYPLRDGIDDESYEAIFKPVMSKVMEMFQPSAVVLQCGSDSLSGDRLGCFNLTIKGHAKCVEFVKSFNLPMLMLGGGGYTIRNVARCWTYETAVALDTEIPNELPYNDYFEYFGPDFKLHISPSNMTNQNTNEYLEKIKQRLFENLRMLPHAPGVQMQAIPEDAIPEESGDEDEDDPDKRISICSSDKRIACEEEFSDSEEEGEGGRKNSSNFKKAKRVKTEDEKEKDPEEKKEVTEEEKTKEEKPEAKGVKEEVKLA
# Results are given in words; binding and its absence hold for the method and conditions named. In cells and extracts the contact can be indirect. Binding can be weak; no strength is given.
# What was measured:
# [1] = molecular target: UHRF2 ΔRING (Flag-tagged deletion mutant lacking the RING finger domain) (UniProt Q96PU4); test: co-IP; HEK293 cells 48 h after transfection, NP40 lysis buffer; whole cell extracts immunoprecipitated overnight at 4°C with anti-Flag antibodies, Western blot
# [2] = molecular target: UHRF2 ΔPHD (Flag-tagged deletion mutant lacking the PHD domain) (UniProt Q96PU4); test: as above
substance,measurement,setting,value
HDAC1 (from UniProt Q13547 1-482),binding,[1],binds
same,binding,[2],binds
